Source: patent US11005050B2, “Metal complexes” (Merck Patent GmbH, priority 2014, dated 2021)

experiment: Vacuum-processed OLEDs (efficiency, voltage, colour coordinates, lifetime); settings: vacuum-processed blue OLEDs

SMILES	LT50 (h) 1000 cd/m^2
c1c[c]2c3c(c1)c1ccccc1n1c4c([n+](c31)[Ir-3]213([c]2cccc5c6ccccc6n6c7c([n+]1c6c25)C1CCC7CC1)[c]1cccc2c5ccccc5n5c6c([n+]3c5c12)C1CCC6CC1)C1CCC4CC1 [Ir(LB120)3]	500 h

same assay, conditions: vacuum-processed red, yellow and green OLEDs

SMILES	LT80 (h) 1000 cd/m^2
c1cc[c]2c(c1)-c1cccc[n+]1[Ir-3]213([c]2cc4c(cc2-c2cccc[n+]21)C1CCC4CC1)[c]1cc2c(cc1-c1cccc[n+]13)C1CCC2CC1 [Ir518]	24000 h
c1ccc(-c2cc3c(c[c]2[Ir]([c]2ccccc2-c2cc4c(cn2)C2CCC4CC2)[c]2cc4c(cc2-c2ccccn2)C2CCC4CC2)C2CCC3CC2)nc1 [Ir533]	26000 h

experiment: Solution-processed OLEDs from soluble functional materials; settings: device Type 1, at 1000 cd/m^2

SMILES	EQE (%) 1000 cd/m^2	Voltage (V) 1000 cd/m^2
c1ccc2c(c1)-c1ccccc1C21c2ccccc2-c2c[c]3c(cc21)-c1cc2c(c[n+]1[Ir-3]314([c]3ccccc3-c3cccc[n+]31)[c]1ccccc1-c1cccc[n+]14)C1CCC2CC1 [Ir514]	20.7%	4.2 V
c1ccc(-c2ccc3[n+](c2)[Ir-3]24([c]5ccccc5-c5cccc[n+]52)([c]2cc5c(cc2-3)C2CCC5CC2)[c]2cc3c(cc2-c2ccc(-c5ccccc5)c[n+]24)C2CCC3CC2)cc1 [Ir519]	20.0%	4.6 V
c1ccc(-c2cc[n+]3c(c2)-c2cc4c(c[c]2[Ir-3]325([c]3ccccc3-c3cccc[n+]32)[c]2cc3c(cc2-c2cc(-c6ccccc6)cc[n+]25)C2CCC3CC2)C2CCC4CC2)cc1 [Ir520]	21.3%	4.0 V
c1cc[c]2c(c1)-c1cccc[n+]1[Ir-3]213([c]2cc4c(cc2-c2cc(-c5ccc6c(c5)C5CCC6CC5)cc[n+]21)C1CCC4CC1)[c]1cc2c(cc1-c1cc(-c4ccc5c(c4)C4CCC5CC4)cc[n+]13)C1CCC2CC1 [Ir522]	21.0%	4.0 V
Cc1cc2[n+](cc1-c1ccccc1)[Ir-3]13([c]4ccccc4-c4cccc[n+]41)([c]1cc4c(cc1-2)C1(C)CCC4(C)CC1)[c]1cc2c(cc1-c1cc(C)c(-c4ccccc4)c[n+]13)C1(C)CCC2(C)CC1 [Ir523]	20.9%	4.6 V
Cc1cccc(C)c1-n1c2[n+](c3cc4c(cc31)C1CCC4CC1)[Ir-3]13([c]4ccccc4-c4cccc[n+]41)([c]1ccccc1-2)[c]1ccccc1-c1n(-c2c(C)cccc2C)c2cc4c(cc2[n+]13)C1CCC4CC1 [Ir524]	14.6%	4.8 V
CC(C)(C)c1ccc2nc(-c3cc4c(c[c]3[Ir]([c]3ccccc3-c3ccccn3)[c]3cc5c(cc3-c3nc6ccc(C(C)(C)C)cc6c6c3C3CC7CC(C3)CC6C7)C3CC6CC(C3)CC5C6)C3CC5CC(CC4C5)C3)c3c(c2c1)C1CC2CC(CC3C2)C1 [Ir525]	20.1%	3.9 V
CC12CCC(C)(CC1)c1c[c]([Ir]([c]3cc4c(cc3-c3cc(-c5ccccc5)ccn3)C(C)(C)C(C)(C)C4(C)C)[c]3cc4c(cc3-c3cc(-c5ccccc5)ccn3)C(C)(C)C(C)(C)C4(C)C)c(-c3ccccn3)cc12 [Ir528]	20.9%	4.2 V
Cc1cccc(C)c1-n1c(-c2cccc[c]2[Ir]([c]2cc3c(cc2-c2cc(-c4ccccc4)ccn2)C(C)(C)OC3(C)C)[c]2cc3c(cc2-c2cc(-c4ccccc4)ccn2)C(C)(C)OC3(C)C)nc2cc3c(cc21)C1(C)CCC3(C)CC1 [Ir529]	19.8%	4.4 V
CC1(C)c2cc(-c3cc(-c4ccccc4)ccn3)[c]([Ir]([c]3cc4c(cc3-c3cc(-c5ccccc5)ccn3)C(C)(C)C(C)(C)C4(C)C)[c]3cc4c(cc3-c3cc5c(cn3)C3CCC5CC3)sc3ccccc34)cc2C(C)(C)C1(C)C [Ir531]	20.3%	4.2 V
c1ccc(-c2ccc(-c3cc4c(c[c]3[Ir]([c]3cc5c(cc3-c3ccccn3)C3CCC5CC3)[c]3cc5c(cc3-c3ccccn3)C3CCC5CC3)C3CC5CC(CC4C5)C3)nc2)cc1 [Ir532]	20.7%	4.6 V
CC(C)Cc1cc[c]2c3c1ccc1c4c(c[n+](c13)[Ir-3]213([c]2ccc(CC(C)C)c5ccc6c7c(c[n+]1c6c25)C1CC2CC(C1)CC7C2)[c]1ccc(CC(C)C)c2ccc5c6c(c[n+]3c5c12)C1CC2CC(C1)CC6C2)C1CC2CC(C1)CC4C2 [Ir602]	20.9%	3.9 V
[2H]c1c([2H])[c]2c3c(c([2H])c([2H])c4c5c(c[n+](c43)[Ir-3]234([c]2c([2H])c([2H])c(-c6ccc7c(c6)C(C)(C)c6ccccc6-7)c6c([2H])c([2H])c7c8c(c[n+]3c7c26)C2CC3CC(C2)CC8C3)[c]2c([2H])c([2H])c(-c3ccc6c(c3)C(C)(C)c3ccccc3-6)c3c([2H])c([2H])c6c7c(c[n+]4c6c23)C2CC3CC(C2)CC7C3)C2CC3CC(C2)CC5C3)c1-c1ccc2c(c1)C(C)(C)c1ccccc1-2 [Ir603]	20.7%	4.1 V
c1ccc(-c2cccc(-c3cc[c]4c5c3ccc3c6c(c[n+](c35)[Ir-3]435([c]4ccc(-c7cccc(-c8ccccc8)c7)c7ccc8c9c(c[n+]3c8c47)C3CC4CCC3CC94)[c]3ccc(-c4cccc(-c7ccccc7)c4)c4ccc7c8c(c[n+]5c7c34)C3CC4CCC3CC84)C3CC4CCC3CC64)c2)cc1 [Ir604]	21.0%	4.0 V
c1ccc(-c2cc[n+]3c(c2)-c2cc4c(c[c]2[Ir-3]325([c]3ccc(-c6ccc7c(c6)oc6ccccc67)cc3-c3cccc[n+]32)[c]2cc3c(cc2-c2cc(-c6ccccc6)cc[n+]25)C2CCC3CC2)C2CCC4CC2)cc1 [Ir612]	20.5%	4.1 V
Cc1cc(-c2cc3c(c[c]2[Ir]([c]2ccc(-c4ccc5c(c4)c4ccccc4n5-c4ccccc4)cc2-c2ccccn2)[c]2cc4c(cc2-c2cc(C)c(-c5ccccc5)cn2)C2(C)CCC4(C)CC2)C2(C)CCC3(C)CC2)ncc1-c1ccccc1 [Ir613]	20.7%	4.5 V
CC1(C)c2ccccc2-c2cc3c4ccccc4n(-c4cccc(-c5cc[c]([Ir]([c]6cc7c(cc6-c6ccccn6)C6CCC7CC6)[c]6cc7c(cc6-c6ccccn6)C6CCC7CC6)c(-c6cc7c(cn6)C6CCC7CC6)c5)c4)c3cc21 [Ir614]	20.3%	4.5 V
CC1(C)c2ccccc2-c2cc3c4ccccc4n(-c4cc[c]5c(c4)-c4cccc[n+]4[Ir-3]546([c]5cc7c(cc5-c5cccc[n+]54)C4CCC7CC4)[c]4cc5c(cc4-c4cccc[n+]46)C4CCC5CC4)c3cc21 [Ir701]	19.9%	4.4 V
Cc1cc2[n+](cc1-c1ccccc1)[Ir-3]13([c]4ccc(-n5c6ccc(-c7ccccc7)cc6c6cc(-c7ccccc7)ccc65)cc4-c4cccc[n+]41)([c]1cc4c(cc1-2)C1(C)CCC4(C)CC1)[c]1cc2c(cc1-c1cc(C)c(-c4ccccc4)c[n+]13)C1(C)CCC2(C)CC1 [Ir703]	21.0%	4.4 V
c1cc[n+]2c(c1)-c1cc3c(c[c]1[Ir-3]214([c]2cc5c(cc2-c2cccc[n+]21)C1CCC5CC1)[c]1cc2c(cc1-c1cccc[n+]14)C1CCC2CC1)C1CCC3CC1 [Ir(LB1)3]	20.7%	4.5 V
c1ccc(-c2cc[n+]3c(c2)-c2cc4c(c[c]2[Ir-3]325([c]3cc6c(cc3-c3cc(-c7ccccc7)cc[n+]32)C2CCC6CC2)[c]2cc3c(cc2-c2cc(-c6ccccc6)cc[n+]25)C2CCC3CC2)C2CCC4CC2)cc1 [Ir(LB3)3]	22.1%	4.1 V
c1cc2c(cc1-c1cc[n+]3c(c1)-c1cc4c(c[c]1[Ir-3]315([c]3cc6c(cc3-c3cc(-c7ccc8c(c7)C7CCC8CC7)cc[n+]31)C1CCC6CC1)[c]1cc3c(cc1-c1cc(-c6ccc7c(c6)C6CCC7CC6)cc[n+]15)C1CCC3CC1)C1CCC4CC1)C1CCC2CC1 [Ir(LB9)3]	21.8%	4.1 V
Cc1cc2[n+](cc1-c1ccccc1)[Ir-3]13([c]4cc5c(cc4-2)C2(C)CCC5(C)CC2)([c]2cc4c(cc2-c2cc(C)c(-c5ccccc5)c[n+]21)C1(C)CCC4(C)CC1)[c]1cc2c(cc1-c1cc(C)c(-c4ccccc4)c[n+]13)C1(C)CCC2(C)CC1 [Ir(LB11)3]	21.0%	4.5 V

same assay, conditions: device Type 2, at 1000 cd/m^2

SMILES	EQE (%) 1000 cd/m^2	Voltage (V) 1000 cd/m^2
c1ccc(-c2cc(-c3ccccc3)cc(-c3cccc(-c4cc[c]5c(c4)-c4c6cc7c(cc6cc[n+]4[Ir-3]546([c]5ccc(-c8cccc(-c9cc(-c%10ccccc%10)cc(-c%10ccccc%10)c9)c8)cc5-c5c8cc9c(cc8cc[n+]54)C4CC5CC(C4)CC9C5)[c]4ccc(-c5cccc(-c8cc(-c9ccccc9)cc(-c9ccccc9)c8)c5)cc4-c4c5cc8c(cc5cc[n+]46)C4CC5CC(C4)CC8C5)C4CC5CC(C4)CC7C5)c3)c2)cc1 [Ir607]	16.8%	3.9 V
c1c[c]2c(cc1C1CCCCC1)-c1cc3cc4c(cc3c[n+]1[Ir-3]213([c]2ccc(C5CCCCC5)cc2-c2cc5cc6c(cc5c[n+]21)C1CCC6CC1)[c]1ccc(C2CCCCC2)cc1-c1cc2cc5c(cc2c[n+]13)C1CCC5CC1)C1CCC4CC1 [Ir608]	18.6%	3.7 V
